The values that follow are results of earlier work, collected in patent publication US20190262453A1, “DESIGN AND COMPOSITION OF CELL-STABILIZED PHARMACEUTICAL FORMULATIONS” (THE REGENTS OF THE UNIVERSITY OF MICHIGAN, priority 2016, published 2019).

The conditions of the series: in vivo; cited from earlier work.

Take `Nc1nc2ccc(OC(F)(F)F)cc2s1` [Riluzole]: the Vd is 3.4 L/kg.
